Experimental data taken from PubChem BioAssay (NCATS).
The inconclusive results got no clear call from the source; some entries with a clear call stand among them for comparison. Potencies beside an inconclusive call are fits to weak or partial responses and may not hold up. Activity calls are given as the source filed them. The call rests on the fitted dose curve; in most records, active means well fitted cell-killing curve with a large enough effect; inconclusive means small, poorly fitted or top-dose-only effect, or effect the other way; inactive means no such curve, though single readings can be large or run the other way.

assay: Quantitative High-Throughput drug screen in 47 multiple myeloma cell lines against the NCATS MIPE library collection: KMS27_JCRB cell viability assay (AID 1918970); conditions: KMS27 myeloma cells, CellTiter-Glo ATP viability, 48 h; viability (% of DMSO): at 45.8 µM (top of the series); further: nearly all actives have a fitted effect of over 30% in size
From the text: PI: Beverly A. Mock Ph.D.
Laboratory of Cancer Biology and Genetics,
Center for Cancer Research, National Cancer Institute,
National Institute of Health, Bethesda, Maryland
Drug resistance and disease progression are common in multiple myeloma (MM) patients, underscoring the need for new therapeutic combinations. […] We hypothesized that effective combinations would reduce MYC expression and enhance p16 activity. […] These preclinical data identify potentially useful drug combinations for evaluation in drug-resistant MM and reveal potential mechanisms of combined drug sensitivity.
Described herein is the primary MIPE qHTS used to cherrypick compounds. Validated compounds were then further tested for potential synergistic activiy.
[1] Peat TJ, Gaikwad SM, Dubois W, Gyabaah-Kessie N, Zhang S, Gorjifard S, Phyo Z, Andres M, Hughitt VK, Simpson RM, Miller MA, Girvin AT, Taylor A, Williams D, D'Antonio N, Zhang Y, Rajagopalan A, Flietner E, Wilson K, Zhang X, Shinn P, Klumpp-Thomas C, McKnight C, Itkin Z, Chen L, Kazandijian D, Zhang J, Michalowski AM, Simmons JK, Keats J, Thomas CJ, Mock BA. Drug combinations identified by high-throughput screening promote cell cycle transition and upregulate Smad pathways in myeloma. […] Epub 2023 Jun 24. PMID: 37356470; PMCID: PMC10408729.
SEQUENCE No. (e.g., 1, 2, 3, etc.); […] (e.g., Cells, Incubation, Reagent, etc.); VALUE and DESCRIPTION.
1; Cells; 5 uL; white, solid bottom 1536-well Greiner assay plate.
2; Compounds; 23 nL; Kalypsis pin tool (Wako USA) equipped with a 1536-well pin head to transfer to the assay plates.
3; Incubation; 48 hours; 37C incubation.
4; Reagent;5uL; CellTiter Glo (Promega).
5; Detector; 425V; Luminescence; Viewlux PerkinElmer.
NOTES (numbers refer to Sequence numbers above)
1. The cell-based screening methods employed in this study were like those previously published. Briefly, the corresponding myeloma cell lines were screened in 1,536-well plates with 500 cells, 5-uL per well for inhibition of cell viability (assessed by measuring ATP levels with CellTiterGlo).
2. NCATS MIPE 4.0 library of approved and investigational drugs were added using the Kalypsis pin tool. Wells treated with DMSO only for 100% viability and media only wells for 0% viability were used as controls.
3. The assay plates were covered and incubated for 48 hours in a 37C, 5% CO2 incubator with controlled humidity.
4. After 48 hours, CellTilter-GloTM luminescent substrate mix (Promega) reagent was added to the assay plate and plates we incubated for 5 min at room temperature.
5. Signal was measured as median relative luminescence units on a ViewLux (PerkinElmer) multiplate reader.
[1] Heske CM, Davis MI, Baumgart JT, Wilson K, Gormally MV, Chen L, Zhang X, Ceribelli M, Duveau DY, Guha R, Ferrer M, Arnaldez FI, Ji J, Tran HL, Zhang Y, Mendoza A, Helman LJ, Thomas CJ. Matrix Screen Identifies Synergistic Combination of PARP Inhibitors and Nicotinamide Phosphoribosyltransferase (NAMPT) Inhibitors in Ewing Sarcoma. Clin Cancer Res. 2017 Dec 1;23(23):7301-7311. doi: 10.1158/1078-0432.CCR-17-1121. Epub 2017 Sep 12. PMID: 28899971; PMCID: PMC6636827.
Potency means the concentration at half of the fitted maximal effect.

| SMILES | Potency | viability (% of DMSO) |
| --- | --- | --- |
| Cc1ccc(-c2cc(C(F)(F)F)nn2-c2ccc(S(N)(=O)=O)cc2)cc1 | inconclusive: 4.69 µM [cytotoxic, partial curve, poor fit] |  |
| CC(C)OC(=O)[C@H](C)N[P@](=O)(OC[C@H]1O[C@@H](n2ccc(=O)[nH]c2=O)[C@](C)(F)[C@H]1O)Oc1ccccc1 |  | inactive: 96.6% |
| N#Cc1c(NC(=O)c2cccc3ccccc23)sc2c1CCCC2 | active: 0.0209 µM |  |
| CC(=O)NC[C@H]1CN(c2ccc(N3CCOCC3)c(F)c2)C(=O)O1 | inconclusive: 0.0148 µM [cytotoxic, full curve, poor fit] |  |
| Clc1cccc(Cl)c1NC1=NCCN1 |  | inactive: 112% |
| CC1(C)O[C@H]2CC(=O)OC[C@]23[C@H]2CC[C@@]4(C)[C@H](c5ccoc5)OC(=O)[C@H]5O[C@]54[C@]2(C)C(=O)C[C@@H]13 |  | inactive: 109% |
| Clc1cccc(-n2nnnc2NCc2ccccc2Oc2ccccn2)c1Cl | inconclusive: 20.9 µM [cytotoxic, partial curve] |  |
| N[C@@H](Cc1ccc(O)c(O)c1)C(=O)O | inconclusive: 0.0662 µM [rising, full curve, poor fit] |  |
| CCCCCCCc1ccc(CCc2cccc(O)c2C(=O)O)cc1 | inconclusive: 0.0019 µM [rising, full curve, poor fit] |  |
| COc1cc2c(N3CCN(C(=O)Nc4ccc(OC(C)C)cc4)CC3)ncnc2cc1OCCCN1CCCCC1 |  | inactive: 104% |
| CC(C)[C@H](O)C(=O)N[C@@H](C)C(=O)N[C@@H]1C(=O)N(C)CCc2ccccc21 |  | inactive: 141% |
| CCC(c1ccc(O)cc1)C(CC)c1ccc(O)cc1 (stereo not given) | inconclusive: 0.332 µM [cytotoxic, full curve, poor fit] |  |
| O=C(O)c1ccc(-n2nc(-c3ccccc3O)nc2-c2ccccc2O)cc1 | active: 18.7 µM |  |
| Nc1ccn([C@@H]2CS[C@H](CO)O2)c(=O)n1 | inconclusive: 7.62 µM [rising, full curve, poor fit] |  |
| c1cncc(CN2CCC(n3ncc4c(N5CCOCC5)nc(-c5ccc6[nH]ccc6c5)nc43)CC2)c1 | inconclusive: 0.372 µM [cytotoxic, full curve, poor fit] |  |
| CN(C(=O)c1ccc(F)cc1C(F)(F)F)C1CCN(c2nnc(-c3ccnn3C)c3ccccc23)CC1 | inconclusive: 33.2 µM [cytotoxic, single point] |  |
| COc1cc2c(c(OC)c1OC)-c1ccc(OC)c(=O)cc1[C@@H](NC(C)=O)CC2 | inconclusive: 0.0026 µM [cytotoxic, partial curve, poor fit] |  |
| COc1nc(N)nc2c1ncn2[C@@H]1O[C@H](CO)[C@@H](O)[C@@H]1O | inconclusive: 4.69 µM [cytotoxic, partial curve, poor fit] |  |
| Cn1cc(-c2ccc3nnc(Sc4ccc5ncccc5c4)n3n2)cn1 |  | inactive: 147% |
| CCOC(=O)[C@H](CCc1ccccc1)N[C@H]1CCc2ccccc2N(CC(=O)O)C1=O | active: 9.35 µM |  |

Reformatted bar-delimited: 3 of the compounds above.
SMILES | Potency | viability (% of DMSO)
COc1cc2c(N3CCN(C(=O)Nc4ccc(OC(C)C)cc4)CC3)ncnc2cc1OCCCN1CCCCC1 |  | inactive: 104%
CC(C)[C@H](O)C(=O)N[C@@H](C)C(=O)N[C@@H]1C(=O)N(C)CCc2ccccc21 |  | inactive: 141%
CCC(c1ccc(O)cc1)C(CC)c1ccc(O)cc1 (stereo not given) | inconclusive: 0.332 µM [cytotoxic, full curve, poor fit] | 

Remaining list, next part:

| SMILES | Potency | viability (% of DMSO) |
| --- | --- | --- |
| Cc1c(CN2CCN(S(C)(=O)=O)CC2)sc2c(N3CCOCC3)nc(-c3cnc(N)nc3)nc12 | inconclusive: 0.0332 µM [cytotoxic, full curve] |  |
| Cc1cc(-c2nnc3n2CCCCC3)c(C)n1-c1ccccc1 | inconclusive: 7.43 µM [cytotoxic, partial curve, poor fit] |  |
| S=P(N1CC1)(N1CC1)N1CC1 | active: 0.469 µM |  |
| CC1=NN(c2ccccc2)C(=O)C1 |  | inactive: 151% |
| CCc1nc(-c2cccc(C)c2)c(-c2ccnc(NC(=O)c3ccccc3)c2)s1 |  | inactive: 121% |
| COc1ccc2c(OCc3nnc4ccc(-c5ccccc5)nn34)ccnc2c1 | inconclusive: 0.59 µM [rising, full curve, poor fit] |  |
| Cc1cc(C(C)Nc2ccccc2)c2nc(N3CCOCC3)cc(=O)n2c1 (stereo not given) | inconclusive: 18.7 µM [cytotoxic, partial curve, poor fit] |  |
| Nc1cccc(S(=O)(=O)N2CCCN(S(=O)(=O)c3ccc4c(c3)OCCO4)CC2)c1 |  | inactive: 121% |
| COc1ccc(-c2cc(=O)c3c(O)cc(O[C@@H]4O[C@H](CO[C@@H]5O[C@@H](C)[C@H](O)[C@@H](O)[C@@H]5O)[C@@H](O)[C@H](O)[C@@H]4O)cc3o2)cc1O |  | inactive: 131% |
| O=C(CN1C(=O)C2(CCCC2)NC[C@H]1c1cc(F)cc(F)c1)Nc1ccc2c(c1)C[C@@]1(C2)C(=O)Nc2ncccc21 | inconclusive: 0.0187 µM [rising, full curve, poor fit] |  |
| CC(=O)Nc1cccc(-n2c(=O)n(C3CC3)c(=O)c3c(Nc4ccc(I)cc4F)n(C)c(=O)c(C)c32)c1 |  | inconclusive: 35% [cytotoxic] |
| COc1cc2nc(N3CCN(C(=O)C4COc5ccccc5O4)CC3)nc(N)c2cc1OC (stereo not given) | inconclusive: 0.332 µM [cytotoxic, full curve, poor fit] |  |
| O=C1CCC(N2C(=O)c3ccccc3C2=O)C(=O)N1 (stereo not given) |  | inactive: 117% |
| O=C1C(CCC(O)c2ccc(F)cc2)C(c2ccc(O)cc2)N1c1ccc(F)cc1 (stereo not given) | inconclusive: 8.33 µM [cytotoxic, partial curve, poor fit] |  |
| N#CC1(c2cccc(C(=O)Nc3cc(Oc4ccc5nc(NC(=O)C6CC6)sc5n4)ccc3F)c2Cl)CC1 | inconclusive: 0.0026 µM [cytotoxic, full curve, poor fit] |  |
| Cc1cccc(CN2CCN(C(c3ccccc3)c3ccc(Cl)cc3)CC2)c1 (stereo not given) | inconclusive: 23.5 µM [cytotoxic, partial curve] |  |
| C[C@H]1COC2=C1C(=O)C(=O)c1c2ccc2c1CCCC2(C)C | inconclusive: 3.32 µM [cytotoxic, partial curve] |  |
| CCCCS(=N)(=O)CCC(N)C(=O)O (stereo not given) |  | inactive: 89.7% |
| CCN1CCN(c2ccc(Nc3cc(N(C)C(=O)Nc4c(Cl)c(OC)cc(OC)c4Cl)ncn3)cc2)CC1 |  | inactive: 170% |
| Cc1csc(-c2nnc(Nc3ccc(Oc4ncccc4-c4ccnc(N)n4)cc3)c3ccccc23)c1 | inconclusive: 37.2 µM [cytotoxic, single point] |  |
